Test results as given in patent US20260125476A1 (INTERVET, published 2026).
Results are given in words; binding and its absence hold for the method and conditions named. Some entries that bind do so weakly or less than the wild type.

Columns and labels:
[1] = biological target: canine CTLA-4 (cCTLA-4) recombinant protein (canine) (UniProt Q9XSI1); test: ELISA on cCTLA-4 (FIG. 6 legend)
[2] = biological target: canine CTLA-4 (cCTLA-4) recombinant protein (canine) (UniProt Q9XSI1); test: ELISA on cCTLA-4 (FIG. 6)
[3] = biological target: canine CTLA-4 (cCTLA-4) recombinant protein (canine) (UniProt Q9XSI1); test: ELISA on coated cCTLA-4, OD450/540 ('xCTLA4 ELISA', Example 7)
[4] = biological target: canine CTLA-4 (cCTLA-4) recombinant protein (canine) (UniProt Q9XSI1); test: ELISA (FIG. 1 legend)
[5] = biological target: canine CTLA-4 (cCTLA-4) recombinant protein (canine) (UniProt Q9XSI1); test: blocking ELISA: cCTLA-4 coated at 200 ng/well, antibody dilutions mixed with 100 ng/well biotinylated canine CD80 (the blocked ligand), streptavidin-HRP, OD450/540 (Example 4)
[6] = biological target: canine CTLA-4 (cCTLA-4) recombinant protein (canine) (UniProt Q9XSI1); test: blocking ELISA: cCTLA-4 coated at 200 ng/well, antibody dilutions mixed with 100 ng/well biotinylated canine CD86 (the blocked ligand), streptavidin-HRP, OD450/540 (Example 4)
[7] = biological target: canine CTLA-4 (cCTLA-4) recombinant protein (canine) (UniProt Q9XSI1); test: ELISA on cCTLA-4 (FIG. 6); the chimera represents the parental antibody
[8] = biological target: canine CTLA-4 (cCTLA-4) recombinant protein (canine) (UniProt Q9XSI1); test: ELISA, coated cCTLA-4 200 ng/well, anti-canine IgG Fc-HRP
[9] = biological target: canine CTLA-4 (cCTLA-4) recombinant protein (canine) (UniProt Q9XSI1); test: ELISA: cCTLA-4 coated at 200 ng/well, three-fold antibody dilutions, HRP anti-canine IgG Fc, OD450/540 (Example 3)
[10] = biological target: canine CTLA-4 (cCTLA-4) recombinant protein (canine) (UniProt Q9XSI1); test: ELISA and FACS screening of hybridoma clones

| binding [3] | binding [4] | binding [5] | binding [6] | binding [8] | binding [9] | binding [10] | Binder | also measured |
| --- | --- | --- | --- | --- | --- | --- | --- | --- |
| binds |  |  |  |  |  |  | Caninized c12B3L3H3 (antibody, V domains shown, also called caninized 12B3 VL3/VH3) VH: EIQLVQSGGDLVKPGGSVRLSCKASGYTFTNYGMNWVKQAPGKGLQWMGWINTYTGEPTYADDFKGRFTFSLDNAKNTAYLQINSLRAEDTAVYFCARRSIYYPYWGQGTTLTVSS VL: DVLMTQTPLSLSVSPGEPASISCRSSQSIVYSNGNTYLEWYLQKPGQSPKLLIYKVSNRFSGVPDRFSGSGSGTDFTLRISRVEADDAGVYYCFQGSHVPWTFGGGTKLELKR | binding [1]: binds; binding [2]: binds |
|  |  |  |  |  |  |  | Caninized c12B3L3H2 (antibody, V domains shown) VH: EIQLVQSGGDLVKPGGSLRLSCKASGYTFTNYGMNWVRQAPGKGLQWMGWINTYTGEPTYADDFKGRFTFSLDNAKNTLYLQMNSLRAEDTAVYFCARRSIYYPYWGQGTTLTVSS VL: DVLMTQTPLSLSVSPGEPASISCRSSQSIVYSNGNTYLEWYLQKPGQSPKLLIYKVSNRFSGVPDRFSGSGSGTDFTLRISRVEADDAGVYYCFQGSHVPWTFGGGTKLELKR | binding [1]: binds; binding [2]: binds |
| binds |  |  |  |  |  |  | Caninized c12B3L2H3 (antibody, V domains shown, also called caninized 12B3) VH: EIQLVQSGGDLVKPGGSVRLSCKASGYTFTNYGMNWVKQAPGKGLQWMGWINTYTGEPTYADDFKGRFTFSLDNAKNTAYLQINSLRAEDTAVYFCARRSIYYPYWGQGTTLTVSS VL: DIVMTQTPLSLSVSPGEPASISCRSSQSIVYSNGNTYLEWYQQKPGQSPKLLIYKVSNRFSGVPDRFSGSGSGTDFTLRISRVEADDAGVYYCFQGSHVPWTFGGGTKLEIKR |  |
| binds | binds | binds | binds | binds | binds |  | Mouse-canine chimeric antibody 39A11 (antibody, V domains shown, Mouse variable regions fused to canine constant heavy chain and canine kappa; HEK 293, protein A; also called chimera of 39A11) VH: EVKLVESGGGLVQPGGSLSLSCATSGFTFSDYYMSWVRQSPGKALEWMGFIRNKANGYTTEYSASLKGRFTISRDNSQSILYLQMNVLRAEDSATYYCVRFGLMYYFDYWGQGTTLTVSS VL: ENVLIQSPAIMSASPGEKVTMTCRASSSVSSSYLHWYQQKSGASPKLWIFSTSNLASGVPARFSGSGSGTSYSLTINSVEAEDAATYYCQQYSGLPLTFGGGTKLEIKR | binding [7]: binds |
|  |  |  |  |  |  | binds | Mouse monoclonal antibody 39A11 (antibody, V domains shown) VH: EVKLVESGGGLVQPGGSLSLSCATSGFTFSDYYMSWVRQSPGKALEWMGFIRNKANGYTTEYSASLKGRFTISRDNSQSILYLQMNVLRAEDSATYYCVRFGLMYYFDYWGQGTTLTVSS VL: ENVLIQSPAIMSASPGEKVTMTCRASSSVSSSYLHWYQQKSGASPKLWIFSTSNLASGVPARFSGSGSGTSYSLTINSVEAEDAATYYCQQYSGLPLTFGGGTKLEIK |  |
| binds |  |  |  |  |  |  | Caninized c39A11L3H3 (antibody, V domains shown, also called caninized 39A11 VL3/VH3) VH: EVKLVESGGDLVKPGGSLRLSCATSGFTFSDYYMSWVRQAPGKALEWMGFIRNKANGYTTEYSASLKGRFTISRDNAKNMLYLQMNSLRAEDTAVYYCVRFGLMYYFDYWGQGTTLTVSS VL: ENVLTQSPASLSLSPGEKVTITCRASSSVSSSYLHWYQQKPGQSPKLWIFSTSNLASGVPSRFSGSGSGTSYSFTISSLEPEDVAVYYCQQYSGLPLTFGGGTKLELKR | binding [1]: binds; binding [2]: binds |
| binds |  |  |  |  |  |  | Caninized c39A11L2H3 (antibody, V domains shown, written here as L2H3; also called caninized 39A11) VH: EVKLVESGGDLVKPGGSLRLSCATSGFTFSDYYMSWVRQAPGKALEWMGFIRNKANGYTTEYSASLKGRFTISRDNAKNMLYLQMNSLRAEDTAVYYCVRFGLMYYFDYWGQGTTLTVSS VL: ENVLTQSPASLSLSQEEKVTITCRASSSVSSSYLHWYQQKPGQAPKLWIFSTSNLASGVPSRFSGSGSGTDYSFTISSLEPEDVAVYYCQQYSGLPLTFGGGTKLELKR |  |
|  |  |  |  |  |  | binds | Mouse monoclonal antibody 45A9 (antibody, V domains shown) VH: QIQLVQSGPELKKPGETVKISCKASGYTFTNYGMNWVKQAPGKGLKWMGWINTYTGEPTYADDFKGRFAFSLETSASTAYLQINNLKNEDTATYFCARRGTYYRPWGQGTTLTVSS VL: DVLMTQTPLSLPVSLGDQASISCRSSQSIVYSHGNTYLEWYLQKPGQSPKVLIYKVSNRFSGVPDRFSGSGSGTDFTLKISRVEAEDLGVYYCFQGSHVPWTFGGGTKLEIK |  |
|  |  |  |  |  |  | binds | Mouse monoclonal antibody 110E3 (antibody, V domains shown) VH: QIQLVQSGPELKKPGETVKISCKASGYTFTNYGMNWVKQAPGKGLKWMGWINTYTGEPTYADDFKGRVAFSLETSASTAFLQINNLKNEDTATYFCARRGVRLDYWGQGTTLTVSS VL: DVLMTQTPLSLPVSLGDQASISCRSSQSIVYISGSTYLEWYLQKPGQSPKLLIYKVSSRFSGVPDRFSGSGSGTDFTLKISRVEAEDLGVYYCFQGSHVPWTFGGGTKLEIK |  |
|  | binds | binds | binds | binds | binds |  | Mouse-canine chimeric antibody 22A11 (antibody, V domains shown, Mouse variable regions fused to canine constant heavy chain and canine kappa; HEK 293, protein A) VH: QVQLQQPGTELVKPGASVKLSCKASGYTFTSYWMHWVKQRPGQGLEWIGNINPSNGGTRFNEKFKNKATLTEDKSSSTAYMQLSSLTSEDSAVYYCARSNYGSGWAWFAYWGQGTLVTVSA VL: DIQMNQSPSSLSASLGDTITITCHASQNINVWLSWYQQKPGNIPKLLIYKSSNLHTGVPSRFSGSGSGTGFTLTISSLQPEDIATYYCQQGQSYPWTFGGGTKLEIKR |  |
|  |  |  |  |  |  | binds | Mouse monoclonal antibody 22A11 (antibody, V domains shown) VH: QVQLQQPGTELVKPGASVKLSCKASGYTFTSYWMHWVKQRPGQGLEWIGNINPSNGGTRFNEKFKNKATLTEDKSSSTAYMQLSSLTSEDSAVYYCARSNYGSGWAWFAYWGQGTLVTVSA VL: DIQMNQSPSSLSASLGDTITITCHASQNINVWLSWYQQKPGNIPKLLIYKSSNLHTGVPSRFSGSGSGTGFTLTISSLQPEDIATYYCQQGQSYPWTFGGGTKLEIK |  |
|  | binds | binds | binds | binds | binds |  | Mouse-canine chimeric antibody 27G12 (antibody, V domains shown, Mouse variable regions fused to canine constant heavy chain and canine kappa; HEK 293, protein A) VH: QIQLVQSGPELKKPGETVKISCKASGYTFTTYGVSWVKQAPGKGLRWMGWINTYSGMPTYVDDFKGRFAFSLETSASTAFLQINNLKNEDTAIYFCARRGISFDYWGQGTTLTVSS VL: DVLMTQTPLSLPVSLGDHASISCKSSQSIVYINGNTYLEWYLQKPGQSPKLLIYKVSKRFSGVPDRFSGSGSGTDFTLKISRVEAEDLGVYYCFQGSHVPWTFGGGTKLEIKR |  |
|  |  |  |  |  |  | binds | Mouse monoclonal antibody 27G12 (antibody, V domains shown) VH: QIQLVQSGPELKKPGETVKISCKASGYTFTTYGVSWVKQAPGKGLRWMGWINTYSGMPTYVDDFKGRFAFSLETSASTAFLQINNLKNEDTAIYFCARRGISFDYWGQGTTLTVSS VL: DVLMTQTPLSLPVSLGDHASISCKSSQSIVYINGNTYLEWYLQKPGQSPKLLIYKVSKRFSGVPDRFSGSGSGTDFTLKISRVEAEDLGVYYCFQGSHVPWTFGGGTKLEIK |  |
|  | binds | binds | binds | binds | binds |  | Mouse-canine chimeric antibody 110E3 (antibody, V domains shown, Mouse variable regions fused to canine constant heavy chain and canine kappa; HEK 293, protein A) VH: QIQLVQSGPELKKPGETVKISCKASGYTFTNYGMNWVKQAPGKGLKWMGWINTYTGEPTYADDFKGRVAFSLETSASTAFLQINNLKNEDTATYFCARRGVRLDYWGQGTTLTVSS VL: DVLMTQTPLSLPVSLGDQASISCRSSQSIVYISGSTYLEWYLQKPGQSPKLLIYKVSSRFSGVPDRFSGSGSGTDFTLKISRVEAEDLGVYYCFQGSHVPWTFGGGTKLEIKR |  |
|  | binds | binds | binds | binds | binds |  | Mouse-canine chimeric antibody 45A9 (antibody, V domains shown, Mouse variable regions fused to canine constant heavy chain and canine kappa; HEK 293, protein A) VH: QIQLVQSGPELKKPGETVKISCKASGYTFTNYGMNWVKQAPGKGLKWMGWINTYTGEPTYADDFKGRFAFSLETSASTAYLQINNLKNEDTATYFCARRGTYYRPWGQGTTLTVSS VL: DVLMTQTPLSLPVSLGDQASISCRSSQSIVYSHGNTYLEWYLQKPGQSPKVLIYKVSNRFSGVPDRFSGSGSGTDFTLKISRVEAEDLGVYYCFQGSHVPWTFGGGTKLEIKR |  |
